Data from the supplement of paper PMC12067093, “Discovery and optimisation of a covalent ligand for TRIM25 and its application to targeted protein ubiquitination” (Chemical Science, 2025).
This is one part of the list.

Chains of the proteins cited; added tags and fusions are not shown. Lines headed by an entry give the natural chain unless they say otherwise; changes in a name come on top.
UniProt Q9H0C8: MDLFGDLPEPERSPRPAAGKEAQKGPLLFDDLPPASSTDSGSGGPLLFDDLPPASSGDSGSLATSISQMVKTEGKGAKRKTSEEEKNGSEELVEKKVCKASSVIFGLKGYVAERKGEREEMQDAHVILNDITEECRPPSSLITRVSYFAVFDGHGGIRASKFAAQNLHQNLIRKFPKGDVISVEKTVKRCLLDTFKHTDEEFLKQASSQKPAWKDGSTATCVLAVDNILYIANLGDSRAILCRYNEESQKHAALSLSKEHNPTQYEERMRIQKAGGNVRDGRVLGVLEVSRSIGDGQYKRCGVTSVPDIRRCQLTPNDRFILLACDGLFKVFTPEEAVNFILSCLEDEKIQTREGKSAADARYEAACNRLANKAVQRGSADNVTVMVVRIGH
UniProt P50213: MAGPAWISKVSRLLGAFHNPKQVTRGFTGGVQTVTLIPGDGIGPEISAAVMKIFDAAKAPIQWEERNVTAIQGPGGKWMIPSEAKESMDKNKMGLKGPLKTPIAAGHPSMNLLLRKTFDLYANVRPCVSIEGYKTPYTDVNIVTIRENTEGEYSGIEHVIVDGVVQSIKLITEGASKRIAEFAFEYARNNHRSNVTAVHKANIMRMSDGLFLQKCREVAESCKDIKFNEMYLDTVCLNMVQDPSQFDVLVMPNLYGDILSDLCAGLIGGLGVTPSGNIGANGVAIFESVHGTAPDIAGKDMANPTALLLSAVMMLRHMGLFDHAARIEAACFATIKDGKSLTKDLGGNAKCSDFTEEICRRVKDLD
UniProt Q7Z6Z7, whole entry, looked up: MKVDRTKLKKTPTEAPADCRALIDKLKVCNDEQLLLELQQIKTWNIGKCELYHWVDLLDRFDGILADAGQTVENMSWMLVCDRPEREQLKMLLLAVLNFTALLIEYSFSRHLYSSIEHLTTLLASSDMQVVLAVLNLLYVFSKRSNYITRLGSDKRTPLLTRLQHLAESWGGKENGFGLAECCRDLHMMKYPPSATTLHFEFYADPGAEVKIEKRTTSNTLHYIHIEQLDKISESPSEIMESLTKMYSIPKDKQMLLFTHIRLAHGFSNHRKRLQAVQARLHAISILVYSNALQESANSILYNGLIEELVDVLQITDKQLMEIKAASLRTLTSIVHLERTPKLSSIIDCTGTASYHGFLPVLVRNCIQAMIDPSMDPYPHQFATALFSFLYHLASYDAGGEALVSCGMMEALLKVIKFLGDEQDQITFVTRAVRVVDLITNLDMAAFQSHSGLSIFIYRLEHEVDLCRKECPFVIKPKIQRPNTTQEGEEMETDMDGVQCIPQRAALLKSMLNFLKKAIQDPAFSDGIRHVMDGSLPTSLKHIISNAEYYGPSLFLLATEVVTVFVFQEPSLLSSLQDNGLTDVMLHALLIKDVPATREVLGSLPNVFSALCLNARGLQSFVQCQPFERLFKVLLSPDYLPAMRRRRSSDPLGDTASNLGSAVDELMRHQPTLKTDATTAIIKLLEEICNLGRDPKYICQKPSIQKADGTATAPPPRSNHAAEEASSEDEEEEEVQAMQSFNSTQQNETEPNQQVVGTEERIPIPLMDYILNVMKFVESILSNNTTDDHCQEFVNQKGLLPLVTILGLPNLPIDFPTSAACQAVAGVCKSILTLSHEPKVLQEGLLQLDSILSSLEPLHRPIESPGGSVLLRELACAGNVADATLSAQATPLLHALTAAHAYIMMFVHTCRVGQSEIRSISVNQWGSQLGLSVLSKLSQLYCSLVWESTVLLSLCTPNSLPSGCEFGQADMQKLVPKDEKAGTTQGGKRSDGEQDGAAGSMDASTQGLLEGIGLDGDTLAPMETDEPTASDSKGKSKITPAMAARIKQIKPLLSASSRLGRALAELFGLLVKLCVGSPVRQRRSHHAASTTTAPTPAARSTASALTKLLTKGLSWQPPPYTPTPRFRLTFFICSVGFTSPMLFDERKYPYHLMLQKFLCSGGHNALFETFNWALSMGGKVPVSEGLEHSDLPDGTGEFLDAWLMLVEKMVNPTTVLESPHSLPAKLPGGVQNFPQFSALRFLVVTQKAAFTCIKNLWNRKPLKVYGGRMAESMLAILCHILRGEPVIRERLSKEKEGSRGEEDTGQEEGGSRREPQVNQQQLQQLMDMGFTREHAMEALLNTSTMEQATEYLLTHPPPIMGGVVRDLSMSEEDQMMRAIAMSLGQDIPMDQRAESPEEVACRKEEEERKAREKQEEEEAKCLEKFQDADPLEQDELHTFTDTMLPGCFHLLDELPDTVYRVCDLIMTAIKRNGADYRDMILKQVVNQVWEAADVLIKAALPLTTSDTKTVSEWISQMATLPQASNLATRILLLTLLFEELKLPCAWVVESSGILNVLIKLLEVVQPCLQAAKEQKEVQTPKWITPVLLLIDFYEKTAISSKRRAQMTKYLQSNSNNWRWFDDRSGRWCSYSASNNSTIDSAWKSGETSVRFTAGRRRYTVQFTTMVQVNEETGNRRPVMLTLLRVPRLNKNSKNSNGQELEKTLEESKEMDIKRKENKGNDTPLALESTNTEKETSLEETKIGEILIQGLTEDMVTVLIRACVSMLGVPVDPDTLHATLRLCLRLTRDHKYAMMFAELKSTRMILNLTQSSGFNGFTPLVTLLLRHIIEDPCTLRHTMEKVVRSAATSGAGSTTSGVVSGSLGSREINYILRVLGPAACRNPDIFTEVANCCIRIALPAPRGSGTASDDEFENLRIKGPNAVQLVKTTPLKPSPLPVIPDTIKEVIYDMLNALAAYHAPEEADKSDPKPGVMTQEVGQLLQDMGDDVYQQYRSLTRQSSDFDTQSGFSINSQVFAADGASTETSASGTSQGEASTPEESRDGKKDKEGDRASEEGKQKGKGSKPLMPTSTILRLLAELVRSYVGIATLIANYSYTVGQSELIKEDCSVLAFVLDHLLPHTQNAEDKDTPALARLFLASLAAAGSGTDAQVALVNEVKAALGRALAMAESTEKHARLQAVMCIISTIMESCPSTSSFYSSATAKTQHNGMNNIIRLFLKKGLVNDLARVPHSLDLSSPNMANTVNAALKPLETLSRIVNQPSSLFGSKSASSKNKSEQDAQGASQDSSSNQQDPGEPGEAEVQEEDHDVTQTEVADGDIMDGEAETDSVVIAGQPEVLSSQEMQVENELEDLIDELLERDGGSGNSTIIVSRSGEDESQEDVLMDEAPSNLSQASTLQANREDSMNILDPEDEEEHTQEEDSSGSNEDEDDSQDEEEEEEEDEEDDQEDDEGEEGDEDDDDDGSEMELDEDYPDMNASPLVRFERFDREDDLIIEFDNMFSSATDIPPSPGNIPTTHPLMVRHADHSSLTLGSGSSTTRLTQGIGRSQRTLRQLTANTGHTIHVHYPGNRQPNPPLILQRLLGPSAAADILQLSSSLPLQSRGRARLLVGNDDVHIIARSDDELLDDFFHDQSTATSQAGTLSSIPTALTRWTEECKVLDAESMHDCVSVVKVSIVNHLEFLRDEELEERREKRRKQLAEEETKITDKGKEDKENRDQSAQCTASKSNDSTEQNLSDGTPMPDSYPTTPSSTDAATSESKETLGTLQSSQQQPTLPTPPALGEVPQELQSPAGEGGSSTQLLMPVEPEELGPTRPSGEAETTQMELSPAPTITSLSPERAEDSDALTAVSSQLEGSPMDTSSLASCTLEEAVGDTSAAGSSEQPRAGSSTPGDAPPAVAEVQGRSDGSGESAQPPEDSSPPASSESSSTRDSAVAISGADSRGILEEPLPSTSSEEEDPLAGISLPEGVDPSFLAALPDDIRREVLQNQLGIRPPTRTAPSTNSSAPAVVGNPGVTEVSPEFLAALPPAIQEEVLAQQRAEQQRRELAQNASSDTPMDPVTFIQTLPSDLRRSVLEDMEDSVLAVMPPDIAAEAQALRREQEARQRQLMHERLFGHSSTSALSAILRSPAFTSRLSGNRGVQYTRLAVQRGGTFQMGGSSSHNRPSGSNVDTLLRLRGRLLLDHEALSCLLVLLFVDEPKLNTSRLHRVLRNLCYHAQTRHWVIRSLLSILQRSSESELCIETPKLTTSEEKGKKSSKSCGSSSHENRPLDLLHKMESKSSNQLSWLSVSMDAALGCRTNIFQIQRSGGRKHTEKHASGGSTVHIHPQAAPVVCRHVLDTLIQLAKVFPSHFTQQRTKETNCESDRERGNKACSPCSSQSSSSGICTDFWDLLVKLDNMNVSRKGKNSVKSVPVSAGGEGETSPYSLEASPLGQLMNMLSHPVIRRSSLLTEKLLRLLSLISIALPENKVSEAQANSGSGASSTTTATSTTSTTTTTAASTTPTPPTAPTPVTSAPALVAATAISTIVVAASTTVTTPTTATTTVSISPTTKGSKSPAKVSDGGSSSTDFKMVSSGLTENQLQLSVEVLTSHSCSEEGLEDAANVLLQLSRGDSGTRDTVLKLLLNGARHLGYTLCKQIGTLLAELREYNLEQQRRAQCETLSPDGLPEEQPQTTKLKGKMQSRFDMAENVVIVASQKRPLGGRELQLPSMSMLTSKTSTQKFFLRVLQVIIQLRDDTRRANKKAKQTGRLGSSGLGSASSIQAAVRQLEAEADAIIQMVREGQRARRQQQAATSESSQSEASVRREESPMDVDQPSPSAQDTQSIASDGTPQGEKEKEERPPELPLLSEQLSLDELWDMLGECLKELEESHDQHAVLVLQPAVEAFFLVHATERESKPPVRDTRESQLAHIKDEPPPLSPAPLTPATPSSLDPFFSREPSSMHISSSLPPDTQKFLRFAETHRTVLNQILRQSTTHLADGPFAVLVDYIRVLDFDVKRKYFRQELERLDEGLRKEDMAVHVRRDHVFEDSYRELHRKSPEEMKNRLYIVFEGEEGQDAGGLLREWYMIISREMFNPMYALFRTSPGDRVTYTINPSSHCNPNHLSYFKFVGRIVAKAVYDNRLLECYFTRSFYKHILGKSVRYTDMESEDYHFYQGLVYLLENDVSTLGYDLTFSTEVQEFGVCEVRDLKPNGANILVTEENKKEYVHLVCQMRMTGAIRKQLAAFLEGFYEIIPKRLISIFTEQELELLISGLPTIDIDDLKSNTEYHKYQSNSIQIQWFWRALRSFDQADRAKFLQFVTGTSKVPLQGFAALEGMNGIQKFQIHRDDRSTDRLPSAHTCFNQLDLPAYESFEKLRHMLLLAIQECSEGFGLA
UniProt Q9NSE4: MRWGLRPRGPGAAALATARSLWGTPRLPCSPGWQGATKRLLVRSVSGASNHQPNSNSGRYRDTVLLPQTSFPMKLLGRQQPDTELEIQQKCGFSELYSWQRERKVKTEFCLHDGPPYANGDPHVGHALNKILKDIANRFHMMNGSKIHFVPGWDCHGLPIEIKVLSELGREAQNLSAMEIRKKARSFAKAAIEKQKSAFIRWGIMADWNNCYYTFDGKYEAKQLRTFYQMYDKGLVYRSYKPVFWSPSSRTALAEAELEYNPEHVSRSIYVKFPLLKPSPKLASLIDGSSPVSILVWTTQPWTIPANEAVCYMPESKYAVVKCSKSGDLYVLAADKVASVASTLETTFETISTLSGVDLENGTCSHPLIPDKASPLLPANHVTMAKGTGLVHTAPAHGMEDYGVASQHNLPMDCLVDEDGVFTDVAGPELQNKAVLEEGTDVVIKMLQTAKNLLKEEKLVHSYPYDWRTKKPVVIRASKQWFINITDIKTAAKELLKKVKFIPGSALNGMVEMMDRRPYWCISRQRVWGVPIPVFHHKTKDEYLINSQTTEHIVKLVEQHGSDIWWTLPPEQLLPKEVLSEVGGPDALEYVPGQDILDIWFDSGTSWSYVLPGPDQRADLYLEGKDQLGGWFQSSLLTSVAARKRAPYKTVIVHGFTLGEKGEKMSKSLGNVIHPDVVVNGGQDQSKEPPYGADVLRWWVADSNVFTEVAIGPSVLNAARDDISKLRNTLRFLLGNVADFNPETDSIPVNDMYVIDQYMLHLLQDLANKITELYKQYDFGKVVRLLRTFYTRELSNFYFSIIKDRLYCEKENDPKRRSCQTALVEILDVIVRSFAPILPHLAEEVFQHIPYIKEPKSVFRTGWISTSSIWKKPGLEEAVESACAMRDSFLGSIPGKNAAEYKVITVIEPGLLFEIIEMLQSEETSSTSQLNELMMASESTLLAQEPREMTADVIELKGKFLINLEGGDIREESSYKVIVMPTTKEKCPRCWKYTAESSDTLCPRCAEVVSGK
UniProt Q9BW83: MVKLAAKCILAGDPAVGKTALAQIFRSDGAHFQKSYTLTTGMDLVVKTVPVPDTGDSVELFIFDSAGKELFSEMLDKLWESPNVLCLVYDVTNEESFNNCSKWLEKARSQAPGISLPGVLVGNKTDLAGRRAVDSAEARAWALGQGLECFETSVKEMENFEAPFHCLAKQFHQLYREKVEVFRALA

Compound: Cc1cc(ccc1-c1ccccc1)C(=O)N1CCCN(CC1)C(=O)CCl [compound 10]
Test: probe-labelled cysteine peptide fold change vs DMSO (competition) (log2 fold change); higher = less target engagement (more negative = stronger competition)
Conditions: THP-1, incubation time: 4 h
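Further: competitive profiling in live THP-1 cells: cysteine peptides tagged with an iodoacetamide desthiobiotin (IA-DTB) probe, intensity after compound treatment relative to DMSO-treated cells.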

Target	probe-labelled cysteine peptide fold change (10 µM)	probe-labelled cysteine peptide fold change (50 µM)
IKBKG_Q9Y6K9_417_CQYQAPDMDTLQIHVMECIE (UniProt Q9Y6K9)	-0.123	0.0335
IGF2R_P11717_174_EVPCYVFDEELRK (UniProt P11717)	-0.252	-0.189
ILKAP_Q9H0C8_301_CGVTSVPDIRR (UniProt Q9H0C8)	0.0304	-0.246
IKBKB_O14920_716_KSEELVAEAHNLCTLLENAIQDTVR (UniProt O14920)	0.0153	-0.00819
IDH3A_P50213_331_IEAACFATIK (UniProt P50213)	0.303	0.39
IGF2R_P11717_2113_RFDIDSCTYYFSWDSR (UniProt P11717)	0.347	0.00493
IK_Q13123_263_ADCPTMEAQTTLTTNDIVISK (UniProt Q13123)	-0.229	0.11
IDH3A_P50213_359_CSDFTEEICR (UniProt P50213)	-0.0425	0.335
IGF2R_P11717_830_YASACQMK (UniProt P11717)	-0.0935	-0.183
INPP5D_Q92835_4_VPCWNHGNITR (UniProt Q92835)	-0.0998	-0.773
HUWE1_Q7Z6Z7_612_EVLGSLPNVFSALCLNAR (UniProt Q7Z6Z7)	0.11	0.201
INF2_Q27J81_101_ISDALLQLTCVSCVR (UniProt Q27J81)	0.0498	-0.052
IARS2_Q9NSE4_1002_YTAESSDTLCPR (UniProt Q9NSE4)	0.0672	-0.0141
IMPDH2_P12268_173_DIDFLKEEEHDCFLEEIMTK (UniProt P12268)	-0.163	-0.307
IGF2R_P11717_2096_TASSVIELTCTK (UniProt P11717)	-0.0404	-0.124
IARS_P41252_185_VMPFSTACNTPLSNFESHQNYK (UniProt P41252)	0.0569	0.0401
IL17RA_Q96F46_185_NFLVPDCEHAR (UniProt Q96F46)	-0.118	0.217
IBTK_Q9P2D0_615_DEDSAGCHLFVVEK (UniProt Q9P2D0)	0.263	0.231
IGF2R_P11717_531_GCPEDAAVCAVDK (UniProt P11717)	-0.0653	-0.042
IGF2R_P11717_1957_CDEDEDIGRPQVFSEVR (UniProt P11717)	-0.0517	-0.135
INPP5D_Q92835_902_APPCSGSSITEIINPNYMGVGPFGPPMPLHVK (UniProt Q92835)	-0.25	-0.545

Record cards (already shown).
IKBKB_O14920_716_KSEELVAEAHNLCTLLENAIQDTVR (UniProt O14920) is listed with probe-labelled cysteine peptide fold change (10 µM): 0.0153; probe-labelled cysteine peptide fold change (50 µM): -0.00819
IL17RA_Q96F46_185_NFLVPDCEHAR (UniProt Q96F46) is listed with probe-labelled cysteine peptide fold change (10 µM): -0.118; probe-labelled cysteine peptide fold change (50 µM): 0.217

Carrying on.

Target	probe-labelled cysteine peptide fold change (10 µM)	probe-labelled cysteine peptide fold change (50 µM)
ILKAP_Q9H0C8_312_CQLTPNDR (UniProt Q9H0C8)	-0.089	-0.204
IDH3A_P50213_351+359_CSDFTEEICR (UniProt P50213)	-0.379	0.158
IGF2R_P11717_1856_DGGVCLLSGTK (UniProt P11717)	-0.0968	-0.169
IARS2_Q9NSE4_1005_CAEVVSGK (UniProt Q9NSE4)	0.0246	-0.434
ILKAP_Q9H0C8_190_CLLDTFK (UniProt Q9H0C8)	0.067	-0.0759
IGF2R_P11717_1349_ETSDCSYLFEWR (UniProt P11717)	0.0429	0.0829
INO80_Q9ULG1_1049_QCLLNGAPELAADWLNRR (UniProt Q9ULG1)	0.124	-0.359
INO80_Q9ULG1_13_DDGGCTELAK (UniProt Q9ULG1)	-0.128	-0.522
IFT27_Q9BW83_149_AWALGQGLECFETSVK (UniProt Q9BW83)	-0.0188	0.129
IFI16_Q16666_191_CQVTPR (UniProt Q16666)	-0.111	-0.291
INPP5B_P32019_129_ACPGFDSATR (UniProt P32019)	-0.153	-0.0407
HUWE1_Q7Z6Z7_1879_VLGPAACR (UniProt Q7Z6Z7)	-0.181	-0.248
ILVBL_A1L0T0_315_AAVETLGVPCFLGGMAR (UniProt A1L0T0)	0.0279	-0.0462
HYOU1_Q9Y4L1_352_VEFEELCADLFER (UniProt Q9Y4L1)	0.00354	0.233
IDH2_P48735_418_DLAGCIHGLSNVK (UniProt P48735)	0.0476	0.056
IFT27_Q9BW83_8_CILAGDPAVGK (UniProt Q9BW83)	-0.0513	-0.177
IGF2R_P11717_1783_TSECDFVFEWETPVVCPDEVR (UniProt P11717)	-0.691	-0.178
IMPACT_Q9P2X3_284_HINNCAR (UniProt Q9P2X3)	-0.174	-0.283
IMPDH1_P20839_468_FVPYLIAGIQHGCQDIGAR (UniProt P20839)	0.0257	0.232
IGF2R_P11717_823_YYINVCRPLNPVPGCNR (UniProt P11717)	-0.136	-0.194
IFT122_Q9HBG6_519_CLDMSASR (UniProt Q9HBG6)	-0.0645	-0.194
